Measurements: patent publication US9636317B2, “Compositions and methods of use of phorbol esters” (priority 2007, dated 2017)
For at least one compound, name, drawing or mass did not settle the structure.

Test system: primary AML cells
Assay: Primary AML cultures ex vivo: cell viability, apoptosis assays and Western analysis of ERK
Format: cell-based, human
Source text: In addition to protein kinase C and ERK activation, TPA is a known inducer of NF-κB, a pro-survival transcription factor often constitutively active in AML blasts and leukemic stem cells.

C[C@@H]1C[C@H]2[C@@H]3CCC4=CC(=O)C=C[C@]4(C)[C@@]3(F)[C@@H](O)C[C@]2(C)[C@@]1(O)C(=O)CO [dexamethasone, reference compound]
MKP-1 ERK phosphatase expression: can induce MKP-1 ERK phosphatase expression
